# Measured values from the supplement of paper PMC4604168 (melanoma cell lines).
# The list shows a part of the results. Many values rest on one well or one pass, so single values are uncertain.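 Cells were imaged in 1,536-well plates, and nuclei stained with an antibody against cleaved PARP were counted against all DNA-stained nuclei to give the apoptosis fraction. Screening doses were chosen to leave most cells alive, and resting and induced cleaved-PARP levels differ strongly between cell lines.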
# How the values were obtained:
# Assay in all cases: cleaved PARP positive nuclei fraction relative to DMSO control; melanoma cells; higher = more apoptosis
# Conditions in all cases: library dose: low library concentration; 72 h
# 501Mel = system: 501Mel
# A101D = system: A101D
# A2058 = system: A2058
# A375 = system: A375
# C32 = system: C32
# CBRC008 = system: CBRC008 (line from a melanoma biopsy)
# CBRC014 = system: CBRC014 (line from a melanoma biopsy)
# CBRC016 = system: CBRC016 (line from a melanoma biopsy)
# CBRC017 = system: CBRC017 (line from a melanoma biopsy)
# CBRC034 = system: CBRC034 (line from a melanoma biopsy)
# COLO792 = system: COLO792
# COLO800 = system: COLO800
# COLO829 = system: COLO829
# G361 = system: G361
# IPC-298 = system: IPC-298
# IST-MEL1 = system: IST-MEL1
# LB2518-MEL = system: LB2518-MEL
# LOXIMVI = system: LOXIMVI
# MEL-HO = system: MEL-HO
SMILES,cleaved PARP positive nuclei fraction (501Mel),cleaved PARP positive nuclei fraction (A101D),cleaved PARP positive nuclei fraction (A2058),cleaved PARP positive nuclei fraction (A375),cleaved PARP positive nuclei fraction (C32),cleaved PARP positive nuclei fraction (CBRC008),cleaved PARP positive nuclei fraction (CBRC014),cleaved PARP positive nuclei fraction (CBRC016),cleaved PARP positive nuclei fraction (CBRC017),cleaved PARP positive nuclei fraction (CBRC034),cleaved PARP positive nuclei fraction (COLO792),cleaved PARP positive nuclei fraction (COLO800),cleaved PARP positive nuclei fraction (COLO829),cleaved PARP positive nuclei fraction (G361),cleaved PARP positive nuclei fraction (IPC-298),cleaved PARP positive nuclei fraction (IST-MEL1),cleaved PARP positive nuclei fraction (LB2518-MEL),cleaved PARP positive nuclei fraction (LOXIMVI),cleaved PARP positive nuclei fraction (MEL-HO)
"Cn1cnc2c(F)c(Nc3ccc(Br)cc3Cl)c(C(=O)NOCCO)cc21 [selumetinib] + COCC[n+]1c2c(n(Cc3cnccn3)c1C)C(=O)c1ccccc1C2=O [YM155] (first compound 0.015 µM, partner dose 0.0004 µM)",550%,47.9%,106%,159%,88.5%,117%,89.1%,235%,127%,153%,88.4%,79%,29.4%,168%,115%,217%,341%,24.9%,58.8%
"CCN(CC)CCNC(=O)c1c(C)[nH]c(/C=C2\C(=O)Nc3ccc(F)cc32)c1C [sunitinib] + CN(c1ncccc1CNc1nc(Nc2ccc3c(c2)CC(=O)N3)ncc1C(F)(F)F)S(C)(=O)=O [PF562271] (first compound 0.4 µM, partner dose 0.08 µM)",63.2%,58%,195%,59.8%,174%,64.6%,235%,97.2%,120%,72.8%,58.1%,86.1%,122%,118%,93.3%,58.2%,97.9%,152%,184%
"CC1(C)CCC(c2ccc(Cl)cc2)=C(CN2CCN(c3ccc(C(=O)NS(=O)(=O)c4ccc(N[C@H](CCN5CCOCC5)CSc5ccccc5)c(S(=O)(=O)C(F)(F)F)c4)cc3)CC2)C1 + CCCCCCCCc1ccc(CCC(N)(CO)CO)cc1 [fingolimod] (first compound 0.4 µM, partner dose 2 µM)",271%,665%,103%,731%,564%,390%,354%,228%,360%,115%,294%,278%,61.2%,129%,500%,320%,52.1%,251%,417%
"CC1(C)CCC(c2ccc(Cl)cc2)=C(CN2CCN(c3ccc(C(=O)NS(=O)(=O)c4ccc(N[C@H](CCN5CCOCC5)CSc5ccccc5)c(S(=O)(=O)C(F)(F)F)c4)cc3)CC2)C1 + Cc1cc(Nc2cc(N3CCN(C)CC3)nc(/C=C/c3ccccc3)n2)n[nH]1 [ENMD2076] (first compound 0.4 µM, partner dose 0.04 µM)",223%,176%,129%,551%,908%,183%,591%,658%,329%,585%,533%,130%,70.9%,236%,91.7%,94.8%,655%,473%,50%
"Cn1sc(=O)n(Cc2ccccc2)c1=O + Clc1ccc(Nc2nnc(Cc3ccncc3)c3ccccc23)cc1 [vatalanib] (first compound 0.4 µM, partner dose 2 µM)",97.6%,104%,53%,160%,141%,69%,270%,172%,121%,33.9%,77.5%,120%,100%,74%,84%,129%,120%,92.7%,108%
"NC1(c2ccc(-c3nc4ccn5c(=O)[nH]nc5c4cc3-c3ccccc3)cc2)CCC1 + Nc1cccc2c1CN(C1CCC(=O)NC1=O)C2=O [lenalidomide] (first compound 0.4 µM, partner dose 1 µM)",68.4%,188%,172%,95.4%,83.8%,114%,79.3%,42.4%,95.1%,104%,59.9%,21.2%,90.4%,140%,79.1%,188%,202%,156%,44.8%
"C[C@]1(O)C[C@@H](c2nc(-c3ccc4ccc(-c5ccccc5)nc4c3)c3c(N)nccn32)C1 + Cc1nc(Nc2ncc(C(=O)Nc3c(C)cccc3Cl)s2)cc(N2CCN(CCO)CC2)n1 [dasatanib] (first compound 0.4 µM, partner dose 0.004 µM)",176%,205%,180%,565%,105%,98.7%,119%,106%,184%,105%,240%,316%,78.7%,70.5%,161%,151%,40.7%,100%,141%
